# Test results reported in PubChem BioAssay AID624246 (National Center for Advancing Translational Sciences (NCATS), 2012).
# Chains of the proteins cited; added tags and fusions are not shown.
# UniProt P11308, whole entry, looked up: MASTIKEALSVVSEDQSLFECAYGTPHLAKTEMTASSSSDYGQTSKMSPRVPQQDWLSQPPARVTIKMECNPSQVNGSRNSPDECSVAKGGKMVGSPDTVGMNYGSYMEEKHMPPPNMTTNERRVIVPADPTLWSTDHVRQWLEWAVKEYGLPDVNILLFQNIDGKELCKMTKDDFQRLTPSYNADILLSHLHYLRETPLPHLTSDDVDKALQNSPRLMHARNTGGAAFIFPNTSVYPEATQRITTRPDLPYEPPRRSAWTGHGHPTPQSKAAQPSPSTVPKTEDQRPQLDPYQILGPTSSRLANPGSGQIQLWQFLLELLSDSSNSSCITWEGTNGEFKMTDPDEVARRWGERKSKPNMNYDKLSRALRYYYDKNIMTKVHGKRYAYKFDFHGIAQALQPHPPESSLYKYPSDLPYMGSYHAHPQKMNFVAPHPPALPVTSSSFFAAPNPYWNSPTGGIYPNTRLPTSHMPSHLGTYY
# The campaign covered roughly 370,000 compounds. About 100 (0.027%) were called active. Inconclusive results, whose numbers are uncertain, are shown with a selection of clear calls. Calls follow the shape of the dose curve; as a rule, active = well fitted inhibition curve with a large enough effect in the polarisation, with a control signal flat; inconclusive = small, poorly fitted or top-dose-only effect, or effect the other way, or a change in a side signal; inactive = no such curve, though single readings can be large or run the other way; the % refers to the polarisation. A potency beside an inconclusive call is a rough fit, not a confirmed value. A note “side channel” means that the fit belongs to a control or component signal, not to the main read-out.
# Target: Transcriptional regulator ERG (Homo sapiens) (UniProt P11308)
# Experiment: qHTS for Small Molecule Inhibitors of the ERG Ets/DNA interaction
# Conditions: fluorescence polarization, His-ERG Ets domain / labelled DNA; series mostly up to 76.9 µM
# Source text: The Ets family of proteins is a family of ~30 conserved transcription factors defined by the presence of an ~85 amino acid domain referred to as the Ets domain, which mediates sequence-specific DNA binding to a core DNA element GGAA/T.The Ets family member ERG has been linked to several neoplasms. […] More extensive studies of the effects of over-expression of ERG in prostate cells have recently been carried out and have shown that over-expression of ERG results in increased invasion. […] We will carry out a high throughout screen to identify inhibitors of the interaction between ERG and DNA using a fluorescence polarization (FP) assay with a His-tagged ERG Ets domain and fluorescently-labeled DNA probes to develop small molecule inhibitors of this interaction as probes to test this hypothesis and lay the groundwork for the development of targeted therapies against ERG. NIH Molecular Libraries Probe Production Network [MLPCN] NIH Chemical Genomics Center [NCGC] Grant: NS066464 PI Name: John Bushweller, University of Virgina
# 1.5 ul of protein solution (1 uM ERG domain in 300mM KCl, 50mM Tris-HCl, 1mM EDTA, 1mM DTT, pH 7.5); 20 nl Control plate and compound library plate; 1.5 ul mixture of 5 nM Fluorescein-DNA and 100nM Texas-615-DNA solution in same buffer as above solution; measure fluorescence polarization sequentially for fluorescein (Excitation = 480 nm, Emission = 535s, 535p nm) and Texas red (Excitation = 555 nm, Emission = 632s, 632p nm).
# Potency is read from the fitted curve at half-maximal effect.
row,SMILES,Potency
1,CCOc1ccc(/C(CCC(=O)O)=N/NC(=S)NCCc2ccccc2)cc1,inactive
2,CO/N=C(\CS(=O)(=O)Cc1ccc(OC)cc1)c1ccc(Cl)cc1,"inconclusive: 6.31 µM [fluorescent, side channel, partial curve, poor fit]"
3,CCN1C(=O)CSc2ccc(C(=O)NC3CCCCC3)cc21,"inconclusive: 4.47 µM [inhibitor, full curve, poor fit]"
4,CCOc1ccc(/C=C2\NC(=S)NC2=O)cc1,inactive
5,COc1ccc(OC)c(N(CC(=O)N2CCC(C)CC2)S(=O)(=O)c2ccccc2)c1,inactive
6,Cn1c(=O)[nH]c(=O)c2c1nc(CN1CCN(c3ccccc3F)CC1)n2CCc1ccccc1,"inconclusive: 11.2 µM [inhibitor, single point]"
7,CCN(CC)C(=O)c1[nH]cnc1C(=O)N[C@@H](Cc1ccccc1)C(=O)OCc1ccccc1,inactive
8,COCCNC(=O)CCC1CCN(C/C=C/c2ccccc2OC)CC1,"inconclusive: 50.1 µM [inhibitor, single point]"
9,Cc1ccc(COc2ccc(-c3cc(C(F)(F)F)n4nc(C)cc4n3)cc2)cc1,"inconclusive: 10 µM [quencher, side channel, partial curve, poor fit]"
10,COc1ccccc1NS(=O)(=O)c1ccc(N/N=C(\C)C(C)C)c([N+](=O)[O-])c1,inactive
11,O=C(Nc1ccc(N2CCOCC2)cc1)Nc1ccc2nc(-c3ccco3)c(-c3ccco3)nc2c1,"inconclusive: 35.5 µM [quencher, side channel, partial curve, poor fit]"
12,O=C1[C@H]2[C@@H](c3ccc(F)cc3)N3C(=O)N(c4cccc(F)c4)C(=O)[C@@]3(Cc3ccccc3)[C@H]2C(=O)N1C1CCCCC1,"inconclusive: 17.8 µM [inhibitor, partial curve, poor fit]"
13,Cc1csc2nc3cc(C(N)=O)ccc3c(=O)n12,inactive
14,CCCCN(C(=S)Nc1cccc(SC)c1)C1CCN(C(C)=O)CC1,"inconclusive: 6.31 µM [inhibitor, full curve, poor fit]"
15,Cc1ccc(S(=O)(=O)NC2CCCC(C(=O)O)C2)cc1 (stereo unspecified),"inconclusive: 35.5 µM [inhibitor, partial curve, poor fit]"
16,Cc1ccc(-c2nc(Nc3ccc(N4CCOCC4)cc3)c3ccccc3n2)cc1,"inconclusive: 15.8 µM [quencher, side channel, partial curve, poor fit]"
17,O=C(NC(Nc1nc2ccc([N+](=O)[O-])cc2s1)(C(F)(F)F)C(F)(F)F)c1ccccc1Cl,inactive
18,O=C(Nc1ccc(OCc2cc(=O)n3c4c(sc3n2)CCCC4)cc1)c1ccc(F)cc1,inactive
19,Cc1ccccc1-c1noc(-c2ccc(NC3CCCC3)c([N+](=O)[O-])c2)n1,inactive
20,Cc1ccc(N(CC(=O)N/N=C/c2cc(C)n(-c3ccccc3C)c2C)S(C)(=O)=O)cc1,inactive
21,COc1ccc2[nH]c(-c3ccccc3)cc2c1,"inconclusive: 31.6 µM [inhibitor, single point]"
22,Cc1ccc(S(=O)(=O)N(CC(O)Cn2c3ccccc3c3ccccc32)c2cccc(C(=O)N(C)C)c2)cc1 (stereo unspecified),"inconclusive: 50.1 µM [fluorescent, side channel, single point]"

row,SMILES,Potency
1,O=C1CCc2ccc(OCCCCN3CCN(c4cccc(Cl)c4Cl)CC3)cc2N1,"inconclusive: 7.94 µM [inhibitor, single point]"
2,CCOc1ccc2nc(SCC(=O)Nc3ccc(S(=O)(=O)N4CCCC4)cc3)c(C)cc2c1,"inconclusive: 44.7 µM [inhibitor, single point]"
3,COc1ccc2oc(=O)c(-c3csc(Nc4cccc(O)c4)n3)cc2c1,"inconclusive: 28.2 µM [quencher, side channel, partial curve]"
4,Cc1c(C(=O)N/N=C/C(C)C)[nH]c2ccc([N+](=O)[O-])cc12,"inconclusive: 5.62 µM [quencher, side channel, single point]"
5,CCOC(=O)C1CCCN(c2c(NCCN3CCCCC3C)c(=O)c2=O)C1 (stereo unspecified),inactive
6,CCN(CC)CCN1C(=O)C2C(C(=O)Nc3cccc(SC)c3)C3C=CC2(O3)C1C(=O)NC1CCCC(C)C1C (stereo unspecified),"inconclusive: 6.31 µM [inhibitor, partial curve, poor fit]"
7,O=C(NCC1CCCCC1)c1cccc(-c2ccc(O)cc2)c1,"inconclusive: 31.6 µM [inhibitor, single point]"
8,COc1ccc(S(=O)(=O)CCC(=O)N2CCN(c3ccc(C(C)=O)cc3)CC2)cc1,inactive
9,CC(Cc1cccs1)NC(=S)Nc1ccc(Cl)c(Cl)c1 (stereo unspecified),inactive
10,O=C(COc1cccc(F)c1)N1c2ccccc2Sc2ccccc21,"inconclusive: 2.82 µM [inhibitor, partial curve, poor fit]"
11,COc1ccc(/C=N/Nc2nnc(Cc3ccc(OC)c(OC)c3)c(=O)[nH]2)cc1OC,"inconclusive: 0.891 µM [inhibitor, partial curve, poor fit]"
12,CCN(CC(=O)N1CCCCCC1)S(=O)(=O)c1ccc(Cl)cc1,"inconclusive: 35.5 µM [inhibitor, single point]"
13,COc1ccc(N(CC(=O)NCc2ccco2)S(=O)(=O)c2ccc(C)cc2)cc1,"inconclusive: 100 µM [inhibitor, single point]"
14,O=C(NCc1ccccc1)NCc1cccs1,"inconclusive: 5.62 µM [inhibitor, single point]"
15,CCc1nnc2c(N3CCN(c4cccc(C(F)(F)F)c4)CC3)nc3ccccc3n12,"inconclusive: 100 µM [inhibitor, single point]"
16,Cc1ccccc1N1CCN(Cc2ccc([N+](=O)[O-])o2)CC1,"inconclusive: 44.7 µM [inhibitor, single point]"
17,Cc1ccc2oc(C(=O)N(Cc3ccc(N(C)C)cc3)CC3CCCO3)c(C)c2c1 (stereo unspecified),"inconclusive: 31.6 µM [quencher, side channel, partial curve, poor fit]"
18,CC(Oc1ccc(C(=O)c2ccc(F)cc2)cc1)C(=O)N1CCOCC1 (stereo unspecified),"inconclusive: 5.01 µM [inhibitor, partial curve, poor fit]"
19,CCOC(=O)CC1COCCN1Cc1cn[nH]c1-c1cc(OC)c(OC)c(OC)c1 (stereo unspecified),"inconclusive: 50.1 µM [inhibitor, single point]"
20,O=C(O)COCCN1CCN([C@H](c2ccccc2)c2ccc(Cl)cc2)CC1,"inconclusive: 7.94 µM [inhibitor, single point]"
21,Cc1cccc(CSc2nncc(=O)[nH]2)c1,"inconclusive: 28.2 µM [quencher, side channel, single point]"
22,Cc1ccccc1C(=O)Nc1sc(C)c(C)c1C(=O)c1ccccc1,"inconclusive: 2.82 µM [quencher, side channel, partial curve, poor fit]"

row,SMILES,Potency
1,O=C(CNC(=S)N(Cc1ccccc1)Cc1cccnc1)NC1CCCCC1,"inconclusive: 3.55 µM [inhibitor, partial curve, poor fit]"
2,CCOC(=O)c1ccc(NC(=S)NN)cc1,inactive
3,CCc1nn2c(=O)cc(COC(=O)c3cccc(NC(=O)c4ccccc4C)c3)nc2s1,inactive
4,COc1cccc(NC(=S)NC2CC(C)(C)NC(C)(C)C2)c1,"inconclusive: 11.2 µM [quencher, side channel, single point]"
5,CN(CC(=O)OCC(=O)NCC(F)(F)F)S(=O)(=O)c1ccc(Cl)cc1,"inconclusive: 7.94 µM [inhibitor, single point]"
6,O=C(NN(C(=O)c1ccccc1)c1ccccc1)c1ccccc1,inactive
7,CN1CCN(S(=O)(=O)c2ccc(NC(=S)NC(=O)C3CCCCC3)cc2)CC1,inactive
8,O=C(N1CCc2[nH]c3ccccc3c2C1)C(F)(F)F,"inconclusive: 6.31 µM [inhibitor, partial curve, poor fit]"
9,CN(C)S(=O)(=O)c1ccc(N2CCCC2)c(C(=O)N2CCC(C(N)=O)CC2)c1,"inconclusive: 31.6 µM [inhibitor, single point]"
10,Cc1nc2cc(C(=O)NCCC3=CCCCC3)ccc2n1-c1ccc(Br)cc1,inactive
11,CCC1NC(=O)c2cc(S(N)(=O)=O)c(Cl)cc2N1 (stereo unspecified),"inconclusive: 50.1 µM [inhibitor, single point]"
12,CC1(c2ccccc2Cl)NC(=O)N(CC(=O)Nc2ccccc2OC(F)F)C1=O (stereo unspecified),"inconclusive: 6.31 µM [inhibitor, single point]"
13,Cc1ccc(OCC(=O)N(Cc2ccc(Cl)cc2)Cc2ccco2)cc1C,inactive
14,CC1=NN(C2=NS(=O)(=O)c3ccccc32)C(C)(O)C1 (stereo unspecified),inactive
15,S=C(Nc1cccc(Cl)c1)Nc1cccc2cnccc12,"inconclusive: 28.2 µM [inhibitor, partial curve, poor fit]"
16,Cc1sc2ncnc(Sc3ccccc3C(=O)Nc3ccc(Br)cc3)c2c1C,inactive
17,CS(=O)(=O)Nc1ccc(N2CCN(c3ccc(C(F)(F)F)cn3)CC2)nc1,"inconclusive: 50.1 µM [inhibitor, single point]"
18,COc1ccc(CC(=O)NCc2ccccn2)cc1OC,inactive
19,CCOC(=O)C1CCCN(CC(=O)Nc2cc(C)cc(C)c2)C1 (stereo unspecified),inactive
20,CC(C)Oc1ccc(CNC(=O)c2ccc(CS(=O)c3cccc(Cl)c3)o2)cc1 (stereo unspecified),inactive
21,O=C(NCCc1ccc(Cl)cc1)C1CCCO1 (stereo unspecified),inactive
22,COc1ccc(CCCC(=O)Nc2cc(C)ccc2OC)cc1,"inconclusive: 7.94 µM [inhibitor, full curve, poor fit]"

# Taken from the results shown (four entries):
row,SMILES,Potency
7,CN1CCN(S(=O)(=O)c2ccc(NC(=S)NC(=O)C3CCCCC3)cc2)CC1,inactive
8,O=C(N1CCc2[nH]c3ccccc3c2C1)C(F)(F)F,"inconclusive: 6.31 µM [inhibitor, partial curve, poor fit]"
9,CN(C)S(=O)(=O)c1ccc(N2CCCC2)c(C(=O)N2CCC(C(N)=O)CC2)c1,"inconclusive: 31.6 µM [inhibitor, single point]"
10,Cc1nc2cc(C(=O)NCCC3=CCCCC3)ccc2n1-c1ccc(Br)cc1,inactive
